Publication PMC5018195

The chains behind the UniProt entries cited, without tags or fusion partners.
UniProt P63015: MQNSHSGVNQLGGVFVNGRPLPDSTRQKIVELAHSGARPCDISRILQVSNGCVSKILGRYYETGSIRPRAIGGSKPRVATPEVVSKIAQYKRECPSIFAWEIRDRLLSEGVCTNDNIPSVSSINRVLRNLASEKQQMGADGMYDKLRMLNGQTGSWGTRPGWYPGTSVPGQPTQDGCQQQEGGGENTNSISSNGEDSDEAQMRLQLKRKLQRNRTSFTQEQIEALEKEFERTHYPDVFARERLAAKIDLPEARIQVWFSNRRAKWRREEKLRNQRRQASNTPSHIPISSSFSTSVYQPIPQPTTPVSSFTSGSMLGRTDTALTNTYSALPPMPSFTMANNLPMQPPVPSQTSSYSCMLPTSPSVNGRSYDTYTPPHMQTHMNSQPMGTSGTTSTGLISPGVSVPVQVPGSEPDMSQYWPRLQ
UniProt Q91X20: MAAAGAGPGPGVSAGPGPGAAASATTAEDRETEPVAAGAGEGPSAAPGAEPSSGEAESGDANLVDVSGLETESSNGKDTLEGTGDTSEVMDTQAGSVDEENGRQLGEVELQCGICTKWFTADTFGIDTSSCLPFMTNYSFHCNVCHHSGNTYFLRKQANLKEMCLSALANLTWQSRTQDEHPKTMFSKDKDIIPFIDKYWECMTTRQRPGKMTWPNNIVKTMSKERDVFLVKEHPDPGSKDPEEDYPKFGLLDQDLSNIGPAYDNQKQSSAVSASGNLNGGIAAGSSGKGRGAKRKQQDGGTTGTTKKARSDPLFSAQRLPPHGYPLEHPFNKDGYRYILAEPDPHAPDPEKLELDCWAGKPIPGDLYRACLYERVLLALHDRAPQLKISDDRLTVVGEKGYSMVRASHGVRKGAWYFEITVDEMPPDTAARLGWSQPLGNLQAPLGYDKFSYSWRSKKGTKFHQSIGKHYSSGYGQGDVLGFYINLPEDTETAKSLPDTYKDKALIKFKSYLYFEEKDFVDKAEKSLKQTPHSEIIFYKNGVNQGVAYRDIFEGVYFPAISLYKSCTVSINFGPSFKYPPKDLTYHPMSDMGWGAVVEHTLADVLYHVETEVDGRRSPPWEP
UniProt P55200: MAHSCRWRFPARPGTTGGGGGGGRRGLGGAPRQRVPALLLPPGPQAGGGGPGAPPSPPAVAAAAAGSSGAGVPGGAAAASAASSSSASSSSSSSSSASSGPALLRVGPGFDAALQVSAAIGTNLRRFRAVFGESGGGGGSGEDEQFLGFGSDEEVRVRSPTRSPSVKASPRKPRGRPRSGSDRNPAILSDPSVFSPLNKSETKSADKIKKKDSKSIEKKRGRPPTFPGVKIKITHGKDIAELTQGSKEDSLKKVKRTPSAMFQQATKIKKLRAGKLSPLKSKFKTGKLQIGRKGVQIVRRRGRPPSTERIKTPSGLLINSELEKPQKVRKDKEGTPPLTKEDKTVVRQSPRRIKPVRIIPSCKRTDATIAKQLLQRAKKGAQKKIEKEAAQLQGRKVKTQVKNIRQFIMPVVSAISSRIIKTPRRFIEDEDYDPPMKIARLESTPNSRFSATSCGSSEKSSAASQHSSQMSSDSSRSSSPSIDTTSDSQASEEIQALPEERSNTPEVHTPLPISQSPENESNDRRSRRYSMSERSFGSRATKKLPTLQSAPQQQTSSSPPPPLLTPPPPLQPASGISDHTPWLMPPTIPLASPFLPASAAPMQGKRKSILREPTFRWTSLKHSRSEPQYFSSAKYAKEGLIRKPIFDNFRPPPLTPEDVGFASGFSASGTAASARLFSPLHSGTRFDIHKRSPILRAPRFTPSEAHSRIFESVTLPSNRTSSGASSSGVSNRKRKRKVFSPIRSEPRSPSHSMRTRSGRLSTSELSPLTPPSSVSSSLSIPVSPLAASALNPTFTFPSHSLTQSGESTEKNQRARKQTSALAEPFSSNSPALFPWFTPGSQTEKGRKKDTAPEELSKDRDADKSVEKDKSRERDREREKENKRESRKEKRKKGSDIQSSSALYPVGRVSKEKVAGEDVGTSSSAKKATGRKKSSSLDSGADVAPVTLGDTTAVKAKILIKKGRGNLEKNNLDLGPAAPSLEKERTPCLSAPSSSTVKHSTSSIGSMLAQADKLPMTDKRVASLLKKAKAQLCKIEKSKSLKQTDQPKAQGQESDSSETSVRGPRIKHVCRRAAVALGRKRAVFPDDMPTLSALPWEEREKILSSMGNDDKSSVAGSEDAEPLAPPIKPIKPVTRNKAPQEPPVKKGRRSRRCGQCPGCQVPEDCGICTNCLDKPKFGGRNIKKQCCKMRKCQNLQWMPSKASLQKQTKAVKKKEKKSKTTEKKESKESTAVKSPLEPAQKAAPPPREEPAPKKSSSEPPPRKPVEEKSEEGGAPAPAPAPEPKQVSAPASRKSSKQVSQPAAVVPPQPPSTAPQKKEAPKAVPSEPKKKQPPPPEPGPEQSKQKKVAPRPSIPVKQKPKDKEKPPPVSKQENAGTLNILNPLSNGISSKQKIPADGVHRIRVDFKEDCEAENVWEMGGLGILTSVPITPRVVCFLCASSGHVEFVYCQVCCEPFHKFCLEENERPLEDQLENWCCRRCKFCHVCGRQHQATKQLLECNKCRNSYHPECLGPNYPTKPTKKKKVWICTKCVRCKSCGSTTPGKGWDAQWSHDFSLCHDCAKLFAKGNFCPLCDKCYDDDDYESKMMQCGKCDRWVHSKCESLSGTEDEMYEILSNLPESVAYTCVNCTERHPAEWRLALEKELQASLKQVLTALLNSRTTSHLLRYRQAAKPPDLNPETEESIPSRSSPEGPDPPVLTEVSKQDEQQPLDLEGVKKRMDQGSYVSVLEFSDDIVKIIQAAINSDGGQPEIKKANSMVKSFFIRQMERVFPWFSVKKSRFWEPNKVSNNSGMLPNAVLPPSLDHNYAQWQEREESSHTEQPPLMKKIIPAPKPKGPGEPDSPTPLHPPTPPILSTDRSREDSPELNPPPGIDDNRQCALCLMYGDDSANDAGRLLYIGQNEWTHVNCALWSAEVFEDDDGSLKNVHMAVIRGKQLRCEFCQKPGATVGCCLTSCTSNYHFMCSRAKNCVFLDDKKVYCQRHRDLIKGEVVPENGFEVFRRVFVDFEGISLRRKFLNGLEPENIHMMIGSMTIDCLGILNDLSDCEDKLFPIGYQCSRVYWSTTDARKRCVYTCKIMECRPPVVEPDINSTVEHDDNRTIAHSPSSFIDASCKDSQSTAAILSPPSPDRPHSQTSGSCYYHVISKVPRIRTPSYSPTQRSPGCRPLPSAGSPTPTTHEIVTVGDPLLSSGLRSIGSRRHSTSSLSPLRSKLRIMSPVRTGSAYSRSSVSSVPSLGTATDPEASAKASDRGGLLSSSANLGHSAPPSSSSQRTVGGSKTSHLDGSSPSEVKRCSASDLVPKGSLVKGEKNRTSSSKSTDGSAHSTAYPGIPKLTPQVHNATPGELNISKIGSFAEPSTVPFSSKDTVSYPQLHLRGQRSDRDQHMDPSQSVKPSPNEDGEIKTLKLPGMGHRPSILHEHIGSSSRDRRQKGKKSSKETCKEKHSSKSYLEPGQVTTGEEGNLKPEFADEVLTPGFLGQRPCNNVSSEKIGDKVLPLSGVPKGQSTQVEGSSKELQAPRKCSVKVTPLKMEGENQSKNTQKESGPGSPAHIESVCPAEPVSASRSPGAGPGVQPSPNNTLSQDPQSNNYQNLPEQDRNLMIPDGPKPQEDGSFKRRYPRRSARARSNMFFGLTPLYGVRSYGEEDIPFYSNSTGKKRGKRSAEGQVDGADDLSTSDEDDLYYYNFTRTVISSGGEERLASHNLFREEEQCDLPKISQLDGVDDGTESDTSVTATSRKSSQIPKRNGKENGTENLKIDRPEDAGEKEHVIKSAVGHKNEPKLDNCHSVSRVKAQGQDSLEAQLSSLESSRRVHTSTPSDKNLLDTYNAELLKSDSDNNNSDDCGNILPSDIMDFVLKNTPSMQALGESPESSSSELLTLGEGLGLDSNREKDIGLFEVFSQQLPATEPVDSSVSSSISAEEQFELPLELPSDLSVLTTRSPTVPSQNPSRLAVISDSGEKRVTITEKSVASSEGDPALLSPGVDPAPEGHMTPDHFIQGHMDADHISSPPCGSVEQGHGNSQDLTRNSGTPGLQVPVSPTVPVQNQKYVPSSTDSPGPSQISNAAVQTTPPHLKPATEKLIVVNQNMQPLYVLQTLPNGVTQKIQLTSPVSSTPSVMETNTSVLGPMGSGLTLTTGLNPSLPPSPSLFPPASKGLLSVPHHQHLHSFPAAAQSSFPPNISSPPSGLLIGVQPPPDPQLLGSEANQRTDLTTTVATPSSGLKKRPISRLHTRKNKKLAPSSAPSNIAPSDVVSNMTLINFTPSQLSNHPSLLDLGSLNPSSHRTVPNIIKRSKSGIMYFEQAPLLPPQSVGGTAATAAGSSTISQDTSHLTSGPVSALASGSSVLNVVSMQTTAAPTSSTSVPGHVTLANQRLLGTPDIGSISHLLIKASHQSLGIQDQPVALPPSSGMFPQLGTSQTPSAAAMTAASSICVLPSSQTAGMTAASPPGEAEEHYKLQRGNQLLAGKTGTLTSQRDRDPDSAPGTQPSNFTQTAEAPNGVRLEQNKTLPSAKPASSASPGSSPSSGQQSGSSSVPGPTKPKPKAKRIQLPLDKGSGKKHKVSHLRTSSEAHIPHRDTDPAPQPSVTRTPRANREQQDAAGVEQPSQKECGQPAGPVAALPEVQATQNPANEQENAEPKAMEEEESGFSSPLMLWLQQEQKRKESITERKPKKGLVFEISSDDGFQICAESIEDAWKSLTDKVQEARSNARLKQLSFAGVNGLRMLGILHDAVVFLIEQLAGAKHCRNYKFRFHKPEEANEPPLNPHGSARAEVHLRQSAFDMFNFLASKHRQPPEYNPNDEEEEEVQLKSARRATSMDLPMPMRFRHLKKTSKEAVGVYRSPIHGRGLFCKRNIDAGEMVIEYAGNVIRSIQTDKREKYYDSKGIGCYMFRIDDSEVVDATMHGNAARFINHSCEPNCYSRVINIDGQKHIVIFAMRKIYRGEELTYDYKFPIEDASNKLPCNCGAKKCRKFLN
UniProt Q6NZQ4: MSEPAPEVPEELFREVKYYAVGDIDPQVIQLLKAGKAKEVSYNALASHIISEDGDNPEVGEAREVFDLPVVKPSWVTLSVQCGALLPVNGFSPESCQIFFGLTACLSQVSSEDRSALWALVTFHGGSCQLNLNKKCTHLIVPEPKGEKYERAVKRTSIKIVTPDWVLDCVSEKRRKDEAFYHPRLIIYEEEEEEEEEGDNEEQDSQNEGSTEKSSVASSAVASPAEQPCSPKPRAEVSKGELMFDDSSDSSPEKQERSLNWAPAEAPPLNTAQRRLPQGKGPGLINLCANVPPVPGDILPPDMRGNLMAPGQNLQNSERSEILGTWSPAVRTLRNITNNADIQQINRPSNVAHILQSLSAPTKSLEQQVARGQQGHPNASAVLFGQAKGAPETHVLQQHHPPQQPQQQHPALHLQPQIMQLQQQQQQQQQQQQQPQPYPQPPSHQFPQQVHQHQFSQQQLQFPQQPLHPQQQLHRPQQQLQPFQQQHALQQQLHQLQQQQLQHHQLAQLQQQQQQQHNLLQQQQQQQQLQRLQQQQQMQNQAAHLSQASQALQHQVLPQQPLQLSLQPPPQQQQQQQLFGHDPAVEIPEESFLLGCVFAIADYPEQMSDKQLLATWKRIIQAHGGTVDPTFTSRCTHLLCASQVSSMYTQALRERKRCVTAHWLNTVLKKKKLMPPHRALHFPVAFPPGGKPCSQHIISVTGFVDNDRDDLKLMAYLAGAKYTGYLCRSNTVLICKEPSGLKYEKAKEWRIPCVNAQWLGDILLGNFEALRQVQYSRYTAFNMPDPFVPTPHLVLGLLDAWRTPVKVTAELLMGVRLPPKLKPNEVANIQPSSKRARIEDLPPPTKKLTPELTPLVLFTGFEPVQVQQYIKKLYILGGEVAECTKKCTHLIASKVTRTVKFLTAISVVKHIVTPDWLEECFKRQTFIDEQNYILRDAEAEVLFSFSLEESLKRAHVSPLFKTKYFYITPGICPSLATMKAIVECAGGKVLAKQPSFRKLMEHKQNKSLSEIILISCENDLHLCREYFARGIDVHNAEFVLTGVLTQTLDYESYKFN
UniProt Q99JF8: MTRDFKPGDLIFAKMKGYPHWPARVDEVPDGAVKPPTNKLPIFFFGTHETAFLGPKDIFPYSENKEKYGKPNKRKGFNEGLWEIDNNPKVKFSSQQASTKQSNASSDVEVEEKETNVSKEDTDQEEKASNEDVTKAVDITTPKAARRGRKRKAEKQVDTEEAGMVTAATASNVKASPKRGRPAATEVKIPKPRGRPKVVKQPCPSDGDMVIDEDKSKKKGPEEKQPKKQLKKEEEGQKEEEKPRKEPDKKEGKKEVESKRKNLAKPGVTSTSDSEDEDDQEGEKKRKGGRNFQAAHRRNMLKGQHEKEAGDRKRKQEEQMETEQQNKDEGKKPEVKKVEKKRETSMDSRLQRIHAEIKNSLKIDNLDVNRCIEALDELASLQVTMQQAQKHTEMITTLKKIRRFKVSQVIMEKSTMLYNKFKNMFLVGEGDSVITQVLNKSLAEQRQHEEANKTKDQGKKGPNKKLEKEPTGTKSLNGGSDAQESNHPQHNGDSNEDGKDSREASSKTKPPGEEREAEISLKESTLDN

B1: Wstf (protein, UniProt Q9Z277 1-1479)
chain: MAPLLGRKPFPLVKPLPGEEPLFTIPHTQEAFRTREEYEARLERYSERIWTCKSTGSSQLTHKEAWEEEQEVAELLKEEFPNWYEKLVLEMVHHNTASLEKLVDSAWLEIMTKYAVGEECDFEVGKEKMLKVKIVKIHPLEKVDEEAVEKKSDGACDSPSSDKENSSQMAQDLQKKETVVKEDEGRRESINDRARRSPRKLPTSLKKGERKWAPPKFLPHKYDVKLQNEDKIISNVPADSLIRTERPPNKEILRYFIRHNALRAGTGENAPWVVEDELVKKYSLPSKFSDFLLDPYKYMTLNPSTKRRNTGSPDRKPSKKPKRDSSSLSSPLNPKLWCHVHLEKSLNGPPLKVKNSKNSKSPEEHLEGVMKIMSPNNNKLHSFHIPKKGPAAKKPGKHSDKPLKAKGRGKGILNGQKSTGNSKSPSKCVKTPKTKMKQMTLLDMAKGTQKMTRTPRSSGGVPRSSGKPHKHLPPAALHLIAYYKENKDKEDKKSALSCVISKTARLLSNEDRARLPEELRALVQKRYELLEHKKRWASMSEEQRKEYLKKKRQELKERLREKAKERREREMLERLEKQKRFEDQELGGRNLPAFRLVDTPEGLPNTLFGDVALVVEFLSCYSGLLLPDAQYPITAVSLMEALSADKGGFLYLNRVLVILLQTLLQDEIAEDYGELGMKLSEIPLTLHSVSELVRLCLRRCDVQEDSEGSETDDNKDSTPFEDNEVQDEFLEKLETSEFFELTSEEKLRILTALCHRILMTYSVQDHMETRQQVSAELWKERLAVLKEENDKKRAEKQKRKEMEARNKENGKEENVLGKVDRKKEIVKIEQQVEVEADDMISAVKSRRLLSMQAKRKREIQERETKVRLEREAEEERMRKHKAAAEKAFQEGIAKAKLVLRRTPIGTDRNHNRYWLFSNEVPGLFIEKGWVHNSIDYRFKHHRKDHSNLPDDDYCPRSKKANLGKNASVNAHHGPALEAVETTVPKQGQNLWFLCDSQKELDELLSCLHPQGIRESQLKERLEKRYQEITHSIYLARKPNLGLKSCDGNQELLNFLRSDLIEVATRLQKGGLGYMEGTSEFEARVISLEKLKDFGECVIALQASVIKKFLQGFMAPKQKKRKLQSEDSTKSEEVDEEKKMVEEAKVASALEKWKTAIREAQTFSRMHVLLGMLDACIKWDMSAENARCKVCRKKGEDDKLILCDECNKAFHLFCLRPALYEVPDGEWQCPACQPPTARRNSRGRNYTEESTSEGSEGDESGEEEEEEEEEEEEEEDYEVAGLRLRPRKTIRGKQSVIPAARPGRPPGKKSHPARRSRPKDDPEVDDLVLQTKRISRRQSLELQKCEDILHKLVKYRFSWPFREPVTRDEAEDYYDVIEHPMDFQTIQNKCSCGNYRSVQEFLTDMKQVFANAELYNCRGSHVLSCMEKTEQCLLALLQKHLPGHPYVRRKRRKFPDRLADDEGDSDSESVGQSRGRRQKK
B2: Pax3/7BP (official name: Paxbp1) (protein, UniProt P58501 1-919)
chain: MFRKARRVNVRKRNDSEEEERERDEEQEPPPLLPPPASGEEPGPGGGDRAPAGESLLGPGPLPPPPSAHHPGLGAEAGGGISGGAEPGNGLKPRKRPRENKEVPRASLLSFQDEEEENEEVFKVKKSSYSKKIVKLLKKEYKEDLEKSKIKTELNTAADSDQPLDKTCHAKDTNPEDGVVISEHGEDEMDMESEKEEEKPKAGGAFSNALSSLNVLRPGEIPDAAFIHAARKKRQLARELGDFTPHDSEPGKGRLVREDENDASDDEDDDEKRRIVFSVKEKSQRQKIAEEIGIEGSDDDALVTGEQDEELSRWEQEQIRKGINIPQVQASQPSEVNVYYQNTYQTMPYGASYGIPYSYTAYGSSDAKSQKTDNTVPFKTPSNEMAPVTIDLVKRQLKDRLDSMKELHKTNQQQHEKHLQSRVDSTRAIERLEGSSGGIGERYKFLQEMRGYVQDLLECFSEKVPLINELESAIHQLYKQRASRLVQRRQDDIKDESSEFSSHSNKALMAPNLDSFGRDRALYQEHAKRRIAEREARRTRRRQAREQTGQMADHLEGLSSDDEETSTDITNFNLEKDRILKESSKVFEDVLESFYSIDCIKAQFEAWRSKYYMSYKDAYIGLCLPKLFNPLIRLQLLTWTPLEAKCRDFETMLWFESLLFYGCEDREQEKDEADVALLPTIVEKVILPKLTVIAETMWDPFSTTQTSRMVGITMKLINGYPSVVNADNKNTQVYLKALLLRMRRTLDDDVFMPLYPKNVLENKNSGPYLFFQRQFWSSVKLLGNFLQWYGIFSNKTLQELSIDGLLNRYILMAFQNSEYGDDSIRKAQNVINCFPKQWFVNLKGERTISQLENFCRYLVHLADTIYRNSIGCSDVEKRNARENIKQIVKLLASVRALDHAISVASDHNVKEVKSLIEGK

Target: Pax6 (mouse (endogenous in αTN4)) (UniProt P63015)
Experiment: affinity purification with mass spectrometry; Pax6 antibody on Protein G Dynabeads, αTN4 nuclear extract in BC200 (200 mM KCl), 4 °C, washes BC200 and BC500; SDS-PAGE bands, LC-MS/MS; 99 % protein probability, at least 3 unique peptides

binding | Molecule
binds | Acf1 (from UniProt O88379 1-1555)
binds | Ash2l (from UniProt Q91X20 1-623)
binds | CBP (from UniProt P45481 1-2441) (enzyme)
binds | Dpy30 (from UniProt Q99LT0 1-99)
binds | Mll1 (from UniProt P55200 1-3966) (enzyme)
binds | Mll2 (from UniProt O08550 1-2713) (enzyme)
no binding | PTIP (from UniProt Q6NZQ4 1-1056)
no binding | Psip1 (from UniProt Q99JF8 1-528)
binds | Rbbp5 (from UniProt Q8BX09 1-538)
binds | Snf2h (Smarca5) (from UniProt Q91ZW3 1-1051) (enzyme)
binds | B1
no binding | B2

These are yes or no findings as the source states them, for the method shown. In cells and extracts the contact can be indirect. A yes stands for co-enrichment or nearness to the bait. Other partners may have been found. A no says only that the protein was not detected with the bait.
